These are yes or no findings as the source states them, for the method shown. For some of these results: Binding seen in cells or lysates may run through a third protein. Some binding calls cover weakened binding; strength is not graded here. For some of these results: Where a sequence is shown, tags or fusion partners need not be part of it.
Columns and labels:
[1] = molecular target: T1, GST-ATF2 fusion protein (residues 40-109) (UniProt P15336); assay: solid-phase kinase assay: GST-ATF2 on GSH-agarose, washed, bound JNK1 detected with [γ-32P]ATP
T1 sequence (looked up): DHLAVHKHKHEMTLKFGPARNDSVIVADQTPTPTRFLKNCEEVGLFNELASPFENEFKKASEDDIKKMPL

The chains behind the UniProt entries cited, without tags or fusion partners. Where a name states a change or a piece, a line headed by the entry shows the natural chain unless it says otherwise. A line that says so, or that is headed by a name, gives the form on record, which may keep a tag or linker.
JNK1 from UV-irradiated cells (P45983, form named): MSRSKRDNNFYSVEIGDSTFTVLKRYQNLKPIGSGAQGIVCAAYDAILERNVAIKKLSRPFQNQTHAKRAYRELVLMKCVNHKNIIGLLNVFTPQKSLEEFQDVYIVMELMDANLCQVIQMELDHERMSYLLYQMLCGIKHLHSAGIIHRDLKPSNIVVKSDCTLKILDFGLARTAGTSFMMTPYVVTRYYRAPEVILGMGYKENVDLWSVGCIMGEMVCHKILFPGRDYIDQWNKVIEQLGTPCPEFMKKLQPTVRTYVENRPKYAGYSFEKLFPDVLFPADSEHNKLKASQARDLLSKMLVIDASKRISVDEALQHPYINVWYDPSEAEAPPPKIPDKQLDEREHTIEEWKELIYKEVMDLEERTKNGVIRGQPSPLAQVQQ
Flag epitope-tagged JNK1 (P45983, form named): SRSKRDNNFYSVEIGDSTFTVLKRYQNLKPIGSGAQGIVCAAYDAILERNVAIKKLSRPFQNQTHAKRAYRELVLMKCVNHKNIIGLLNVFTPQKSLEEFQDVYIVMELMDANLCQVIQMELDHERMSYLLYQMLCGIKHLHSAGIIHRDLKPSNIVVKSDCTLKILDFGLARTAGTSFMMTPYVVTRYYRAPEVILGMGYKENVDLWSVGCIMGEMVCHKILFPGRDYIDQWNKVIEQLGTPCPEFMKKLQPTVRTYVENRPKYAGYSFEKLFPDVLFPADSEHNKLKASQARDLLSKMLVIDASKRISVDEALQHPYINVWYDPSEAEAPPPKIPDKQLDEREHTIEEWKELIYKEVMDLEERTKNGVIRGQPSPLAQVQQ

[2] = molecular target: GST-ATF2 fusion protein (residues 1-109, activation domain) [GST: P08515]; assay: as above
[3] = molecular target: T2, GST-ATF2 fusion protein (residues 1-349) (UniProt P15336); assay: as above
T2 sequence (looked up): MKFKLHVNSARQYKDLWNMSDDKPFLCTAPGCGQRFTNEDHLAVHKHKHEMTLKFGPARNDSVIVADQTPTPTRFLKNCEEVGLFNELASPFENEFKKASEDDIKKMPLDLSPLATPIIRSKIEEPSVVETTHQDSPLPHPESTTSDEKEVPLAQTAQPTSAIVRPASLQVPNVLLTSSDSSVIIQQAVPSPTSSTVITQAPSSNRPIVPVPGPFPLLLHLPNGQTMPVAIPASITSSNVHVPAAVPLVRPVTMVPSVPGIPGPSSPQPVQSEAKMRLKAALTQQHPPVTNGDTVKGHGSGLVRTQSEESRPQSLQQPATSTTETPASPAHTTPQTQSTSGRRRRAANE

[4] = molecular target: T3, GST-ATF2 fusion protein (residues 20-109) (UniProt P15336); assay: as above
T3 sequence (looked up): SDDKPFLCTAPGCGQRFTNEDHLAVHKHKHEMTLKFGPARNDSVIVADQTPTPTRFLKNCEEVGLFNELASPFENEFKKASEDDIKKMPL

[5] = molecular target: T4, GST-ATF2 fusion protein (residues 1-505) (UniProt P15336); assay: as above
T4 sequence (looked up): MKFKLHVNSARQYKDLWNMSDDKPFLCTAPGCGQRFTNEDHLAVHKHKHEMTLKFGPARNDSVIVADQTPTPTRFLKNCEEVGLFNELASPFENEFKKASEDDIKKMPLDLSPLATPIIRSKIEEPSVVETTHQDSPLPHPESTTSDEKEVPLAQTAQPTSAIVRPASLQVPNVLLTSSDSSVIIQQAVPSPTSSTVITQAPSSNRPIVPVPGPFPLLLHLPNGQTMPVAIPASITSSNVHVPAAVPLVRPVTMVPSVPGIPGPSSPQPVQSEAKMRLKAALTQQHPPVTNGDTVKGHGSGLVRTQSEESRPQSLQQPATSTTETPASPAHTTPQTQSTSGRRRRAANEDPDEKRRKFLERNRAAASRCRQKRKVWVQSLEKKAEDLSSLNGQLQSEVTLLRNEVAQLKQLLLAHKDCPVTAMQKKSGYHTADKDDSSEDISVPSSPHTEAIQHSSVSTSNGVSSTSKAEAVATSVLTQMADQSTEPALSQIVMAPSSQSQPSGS

[6] = molecular target: GST-ATF2 fusion protein (residues 1-109, activation domain) [GST: P08515]; assay: solid-phase kinase assay of Example 8
[7] = molecular target: GST-ATF2 fusion protein (residues 1-109, activation domain) [GST: P08515]; assay: GST pull-down from cell extracts on GSH agarose, Western blot with M2

Measured: binding

JNK1 from UV-irradiated cells (from UniProt P45983 1-384) (enzyme)
not listed: [7]
binds: all other assays above

Flag epitope-tagged JNK1 (from UniProt P45983 2-384) (enzyme)
binds: [7]
